Reference: the supplement of paper PMC10849652
The other results are listed elsewhere or left out.

Amino acid sequences for entries named in this document (tags omitted). A change or cut given only in a name is not applied to a line headed by its entry.
UniProt Q8N4Q0: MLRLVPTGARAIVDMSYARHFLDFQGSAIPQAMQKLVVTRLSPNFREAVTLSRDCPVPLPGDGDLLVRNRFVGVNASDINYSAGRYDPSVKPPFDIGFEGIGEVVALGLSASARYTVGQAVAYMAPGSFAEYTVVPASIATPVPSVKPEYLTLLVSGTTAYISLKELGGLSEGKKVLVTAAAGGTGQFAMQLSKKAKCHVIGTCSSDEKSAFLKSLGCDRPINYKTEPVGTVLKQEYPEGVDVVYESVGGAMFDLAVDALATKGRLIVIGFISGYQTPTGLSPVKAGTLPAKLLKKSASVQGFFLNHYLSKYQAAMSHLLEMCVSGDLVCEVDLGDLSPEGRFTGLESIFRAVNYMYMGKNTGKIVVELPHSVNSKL
UniProt Q8N5P1: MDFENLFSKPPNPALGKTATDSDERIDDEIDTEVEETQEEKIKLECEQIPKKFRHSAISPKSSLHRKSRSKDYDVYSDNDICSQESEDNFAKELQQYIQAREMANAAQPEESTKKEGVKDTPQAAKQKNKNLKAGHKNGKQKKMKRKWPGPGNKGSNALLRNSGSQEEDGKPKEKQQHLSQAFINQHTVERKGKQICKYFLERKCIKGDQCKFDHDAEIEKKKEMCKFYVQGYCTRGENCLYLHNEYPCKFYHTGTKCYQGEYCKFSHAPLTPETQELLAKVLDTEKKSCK
UniProt Q96TA2: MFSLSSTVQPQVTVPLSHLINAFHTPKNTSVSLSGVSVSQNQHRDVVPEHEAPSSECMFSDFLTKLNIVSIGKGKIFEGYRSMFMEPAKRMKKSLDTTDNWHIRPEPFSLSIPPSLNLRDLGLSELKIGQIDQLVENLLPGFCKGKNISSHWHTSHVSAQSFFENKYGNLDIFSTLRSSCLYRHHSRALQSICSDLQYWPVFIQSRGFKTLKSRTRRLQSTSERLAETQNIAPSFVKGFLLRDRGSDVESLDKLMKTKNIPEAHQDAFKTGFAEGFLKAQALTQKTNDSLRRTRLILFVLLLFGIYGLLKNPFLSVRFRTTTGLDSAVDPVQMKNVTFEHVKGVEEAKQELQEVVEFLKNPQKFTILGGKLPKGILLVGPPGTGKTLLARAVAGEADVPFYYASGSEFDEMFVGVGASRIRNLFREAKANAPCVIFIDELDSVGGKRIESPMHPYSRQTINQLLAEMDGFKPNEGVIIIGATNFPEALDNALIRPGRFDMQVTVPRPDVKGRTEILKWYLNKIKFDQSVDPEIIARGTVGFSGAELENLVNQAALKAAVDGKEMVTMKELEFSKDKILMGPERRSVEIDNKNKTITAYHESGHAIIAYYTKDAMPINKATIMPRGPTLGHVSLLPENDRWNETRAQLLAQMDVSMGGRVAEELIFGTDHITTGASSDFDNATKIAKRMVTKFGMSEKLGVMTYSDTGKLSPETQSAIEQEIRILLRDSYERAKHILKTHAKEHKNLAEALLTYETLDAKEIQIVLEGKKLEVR
UniProt P13010: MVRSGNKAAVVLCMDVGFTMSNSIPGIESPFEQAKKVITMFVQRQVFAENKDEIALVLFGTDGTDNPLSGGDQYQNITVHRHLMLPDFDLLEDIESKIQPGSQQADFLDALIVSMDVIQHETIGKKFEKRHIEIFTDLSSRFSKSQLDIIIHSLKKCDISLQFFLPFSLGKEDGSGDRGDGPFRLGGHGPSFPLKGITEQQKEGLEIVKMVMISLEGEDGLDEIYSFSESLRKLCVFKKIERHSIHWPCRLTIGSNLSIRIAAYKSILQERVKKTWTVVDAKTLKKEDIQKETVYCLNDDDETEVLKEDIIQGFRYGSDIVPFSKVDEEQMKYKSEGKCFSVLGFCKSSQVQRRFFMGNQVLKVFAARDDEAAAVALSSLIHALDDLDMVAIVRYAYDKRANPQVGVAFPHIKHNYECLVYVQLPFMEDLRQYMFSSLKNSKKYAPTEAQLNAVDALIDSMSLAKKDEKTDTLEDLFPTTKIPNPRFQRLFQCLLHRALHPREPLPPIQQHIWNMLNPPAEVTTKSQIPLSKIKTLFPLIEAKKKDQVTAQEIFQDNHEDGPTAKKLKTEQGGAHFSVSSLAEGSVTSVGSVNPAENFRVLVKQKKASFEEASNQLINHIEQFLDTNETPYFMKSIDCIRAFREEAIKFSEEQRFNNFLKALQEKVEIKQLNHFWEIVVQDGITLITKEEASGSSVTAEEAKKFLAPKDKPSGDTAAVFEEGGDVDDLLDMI
UniProt Q7Z3T8: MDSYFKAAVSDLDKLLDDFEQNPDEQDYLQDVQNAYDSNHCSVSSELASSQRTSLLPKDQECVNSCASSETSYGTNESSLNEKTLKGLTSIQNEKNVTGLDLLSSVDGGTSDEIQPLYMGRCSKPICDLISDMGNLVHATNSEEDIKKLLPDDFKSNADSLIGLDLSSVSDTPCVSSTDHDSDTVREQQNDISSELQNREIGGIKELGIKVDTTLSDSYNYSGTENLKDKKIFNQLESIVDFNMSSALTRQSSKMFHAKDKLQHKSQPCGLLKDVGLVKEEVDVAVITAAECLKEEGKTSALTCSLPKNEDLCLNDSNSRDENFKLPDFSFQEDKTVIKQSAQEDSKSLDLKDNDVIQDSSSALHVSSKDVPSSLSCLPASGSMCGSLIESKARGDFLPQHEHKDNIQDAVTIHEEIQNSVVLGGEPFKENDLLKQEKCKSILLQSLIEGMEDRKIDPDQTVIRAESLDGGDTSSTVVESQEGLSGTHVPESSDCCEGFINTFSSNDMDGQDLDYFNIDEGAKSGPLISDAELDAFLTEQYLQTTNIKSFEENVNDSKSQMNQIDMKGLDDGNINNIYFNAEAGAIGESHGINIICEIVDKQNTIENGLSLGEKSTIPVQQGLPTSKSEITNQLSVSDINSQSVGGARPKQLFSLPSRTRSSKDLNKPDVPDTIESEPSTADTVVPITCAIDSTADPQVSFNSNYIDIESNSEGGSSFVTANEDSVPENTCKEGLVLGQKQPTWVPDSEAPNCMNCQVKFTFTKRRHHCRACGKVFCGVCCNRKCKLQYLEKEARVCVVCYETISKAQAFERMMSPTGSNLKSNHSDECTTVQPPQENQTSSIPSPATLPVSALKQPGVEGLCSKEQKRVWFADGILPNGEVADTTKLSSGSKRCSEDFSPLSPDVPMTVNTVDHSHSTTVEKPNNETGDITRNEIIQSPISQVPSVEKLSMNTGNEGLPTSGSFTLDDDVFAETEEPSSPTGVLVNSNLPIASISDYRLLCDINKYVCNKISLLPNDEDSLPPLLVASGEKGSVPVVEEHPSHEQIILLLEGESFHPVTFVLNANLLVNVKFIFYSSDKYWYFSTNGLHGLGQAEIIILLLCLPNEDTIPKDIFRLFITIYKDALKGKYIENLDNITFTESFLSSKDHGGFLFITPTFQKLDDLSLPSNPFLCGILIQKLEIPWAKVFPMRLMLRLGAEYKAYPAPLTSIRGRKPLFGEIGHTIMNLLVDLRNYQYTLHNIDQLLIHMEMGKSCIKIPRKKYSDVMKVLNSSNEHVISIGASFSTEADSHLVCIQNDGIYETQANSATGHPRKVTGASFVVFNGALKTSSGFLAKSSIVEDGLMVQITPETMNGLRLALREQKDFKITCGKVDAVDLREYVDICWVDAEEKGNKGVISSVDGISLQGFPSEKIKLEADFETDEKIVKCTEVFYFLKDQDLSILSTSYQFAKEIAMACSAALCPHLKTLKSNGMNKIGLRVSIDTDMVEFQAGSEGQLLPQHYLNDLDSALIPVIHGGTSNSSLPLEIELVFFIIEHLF
UniProt O14980, whole entry, looked up: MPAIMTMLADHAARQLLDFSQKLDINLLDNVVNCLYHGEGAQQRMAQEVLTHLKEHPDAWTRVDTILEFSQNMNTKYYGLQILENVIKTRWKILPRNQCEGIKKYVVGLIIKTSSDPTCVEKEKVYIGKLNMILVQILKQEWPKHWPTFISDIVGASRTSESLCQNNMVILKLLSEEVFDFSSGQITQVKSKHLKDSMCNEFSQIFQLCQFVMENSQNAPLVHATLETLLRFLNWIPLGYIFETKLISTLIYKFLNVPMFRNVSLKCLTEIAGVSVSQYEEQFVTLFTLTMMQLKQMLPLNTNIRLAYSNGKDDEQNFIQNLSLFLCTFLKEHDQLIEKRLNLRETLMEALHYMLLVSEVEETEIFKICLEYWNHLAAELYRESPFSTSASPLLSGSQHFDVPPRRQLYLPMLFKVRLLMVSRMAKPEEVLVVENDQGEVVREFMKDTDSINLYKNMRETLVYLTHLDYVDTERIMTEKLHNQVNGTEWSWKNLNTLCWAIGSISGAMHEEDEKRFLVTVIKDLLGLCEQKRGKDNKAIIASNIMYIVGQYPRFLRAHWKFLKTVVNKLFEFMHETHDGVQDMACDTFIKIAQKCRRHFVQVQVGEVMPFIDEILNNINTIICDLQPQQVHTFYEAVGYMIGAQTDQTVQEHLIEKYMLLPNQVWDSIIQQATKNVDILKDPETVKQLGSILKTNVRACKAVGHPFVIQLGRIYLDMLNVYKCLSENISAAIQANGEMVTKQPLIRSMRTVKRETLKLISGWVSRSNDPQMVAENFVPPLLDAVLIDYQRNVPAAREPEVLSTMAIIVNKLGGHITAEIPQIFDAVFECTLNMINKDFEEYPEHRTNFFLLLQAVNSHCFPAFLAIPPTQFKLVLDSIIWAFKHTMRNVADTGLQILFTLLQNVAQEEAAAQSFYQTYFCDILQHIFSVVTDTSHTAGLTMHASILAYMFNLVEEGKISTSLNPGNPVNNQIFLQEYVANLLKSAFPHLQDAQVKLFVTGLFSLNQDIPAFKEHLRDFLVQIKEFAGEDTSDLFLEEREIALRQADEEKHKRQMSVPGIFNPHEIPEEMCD
UniProt Q96NC0: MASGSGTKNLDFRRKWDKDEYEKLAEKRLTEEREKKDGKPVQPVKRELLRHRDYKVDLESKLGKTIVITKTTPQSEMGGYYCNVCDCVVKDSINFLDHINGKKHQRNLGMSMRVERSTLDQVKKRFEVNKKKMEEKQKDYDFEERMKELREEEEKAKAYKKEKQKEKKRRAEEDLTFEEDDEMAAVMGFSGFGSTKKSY
UniProt P62699: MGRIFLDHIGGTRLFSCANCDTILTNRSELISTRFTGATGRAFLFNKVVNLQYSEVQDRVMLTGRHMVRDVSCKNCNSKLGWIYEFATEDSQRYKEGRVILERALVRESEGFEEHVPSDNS

Assays:
Experiment in all cases: log2 fold change, soluble protein after heating vs DMSO (PISA); higher = thermal stabilisation; K562 cells, 10 uM, 30 min; active = over 0.2 and 3.5 SD of the protein, either way, in both replicates (recomputed)
[1] = compound: Cc1ccc(NC(=O)c2ccc(CN3CC[C@H](N(C)C)C3)c(C(F)(F)F)c2)cc1Nc1nccc(-c2cncnc2)n1 [bafetinib]
In short: (§1)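 Thermal stability values are relative to control samples and come from duplicates. They are expressed as log2 fold changes. For measurement, K562 cells (2×10^6 cells/mL) received 10 μM compound for 30 min, and aliquots were heated for 3 min over 48°C-58°C, pooled, and extracted at 4°C in PBS with 0.5% NP-40. Soluble protein, the supernatant after 21,000xg for 90 min, was quantified by TMTpro 16plex LC-MS/MS with equalised channel sums.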

[2] = compound: Cc1cccc(CC(=O)N2CCc3c2ccc(-c2cn(C)c4ncnc(N)c24)c3F)n1
In short: as §1

[3] = compound: Cc1cn(-c2cc(NC(=O)c3ccc(C)c(Nc4nccc(-c5cccnc5)n4)c3)cc(C(F)(F)F)c2)cn1 [nilotinib]
In short: as §1

[4] = compound: Cc1nc(Nc2n[nH]c3c2CN(C(=O)N[C@H](CN(C)C)c2ccccc2)C3(C)C)c2sccc2n1
In short: as §1

[5] = compound: Cc1nc(Nc2ncc(C(=O)Nc3c(C)cccc3Cl)s2)cc(N2CCN(CCO)CC2)n1 [dasatinib]
In short: as §1

[6] = compound: Cc1ncc(-c2ccnc(Nc3ccc(S(C)(=O)=O)cc3)n2)n1C(C)C
In short: as §1

[7] = compound: Cn1cc(-c2ccc3c(c2)CCN3C(=O)Cc2cccc(C(F)(F)F)c2)c2c(N)ncnc21
In short: as §1

[8] = compound: Cn1cc(-c2ccc3nnc(C(F)(F)c4ccc5ncccc5c4)n3n2)cn1
In short: as §1

[9] = compound: Cn1cncc1[C@@](N)(c1ccc(Cl)cc1)c1ccc2c(c1)c(-c1cccc(Cl)c1)cc(=O)n2C [tipifarnib]
In short: as §1

[10] = compound: FC(F)(F)c1ccc(/C=C/c2nc(COc3ccc(CCCCn4ccnn4)cc3)co2)cc1 [mubritinib]
In short: as §1

[11] = compound: NC(=O)Nc1cc(-c2cccc(F)c2)sc1C(=O)N[C@H]1CCCNC1
In short: as §1

[12] = compound: NC(=O)c1cnc(N[C@@H]2CCCC[C@@H]2N)nc1Nc1cccc(-n2nccn2)c1
In short: as §1

[13] = compound: NC1(c2ccc(-c3nc4ccn5c(=O)[nH]nc5c4cc3-c3ccccc3)cc2)CCC1
In short: as §1

[14] = compound: NCC(=O)Nc1ccc(-n2nc(C(F)(F)F)cc2-c2ccc3c(ccc4ccccc43)c2)cc1
In short: as §1

[15] = compound: Nc1ccccc1NC(=O)c1ccc(CNC(=O)OCc2cccnc2)cc1 [entinostat]
In short: as §1

[16] = compound: O=C(CCCCCCC(=O)Nc1ccccc1)NO [vorinostat]
In short: as §1

[17] = compound: O=C(CCCCCCNC(=O)c1cnc(N(c2ccccc2)c2ccccc2Cl)nc1)NO [citarinostat]
In short: as §1

[18] = compound: O=C(O)c1ccc2c(c1)nc(Nc1cccc(Cl)c1)c1ccncc12 [silmitasertib]
In short: as §1

[19] = compound: O=C1NC(=O)C(c2cnc3ccccn23)=C1c1cn2c3c(cc(F)cc13)CN(C(=O)N1CCCCC1)CC2
In short: as §1

[20] = compound: c1cc(OCCN2CCCCC2)cc(-c2n[nH]c3ccc(-c4nnc[nH]4)cc23)c1
In short: as §1

Measured: log2 fold change

ZADH2 (UniProt Q8N4Q0)
inactive: [1] -0.08 | [2] -0.041 | [3] 0.04 | [4] -0.127 | [5] 0.035 | [6] 0.066 | [7] 0.04 | [8] 0.107 | [9] -0.053 | [11] -0.074 | [12] -0.025 | [13] 0.106 | [14] 0.017 | [15] -0.04 | [16] 0.002 | [17] 0.106 | [18] 0.053 | [19] -0.043 | [20] -0.017
active: [10] -0.294

ZC3H8 (UniProt Q8N5P1)
inactive: [1] 0.052 | [2] 0.026 | [3] 0.016 | [4] 0.081 | [5] 0.123 | [6] 0.036 | [7] -0.084 | [8] -0.056 | [9] 0.043 | [10] -0.102 | [11] 0.025 | [12] 0.08 | [13] 0.181 | [14] 0.036 | [15] -0.141 | [16] -0.039 | [17] -0.059 | [18] 0.035 | [19] 0 | [20] -0.104

YME1L1 (UniProt Q96TA2)
inactive: [1] -0.098 | [2] -0.001 | [3] -0.057 | [4] -0.005 | [5] 0.019 | [6] 0.004 | [7] -0.042 | [8] 0 | [9] 0.044 | [10] -0.011 | [11] -0.012 | [12] -0.024 | [13] -0.044 | [14] -0.045 | [15] -0.001 | [16] 0.031 | [17] 0.016 | [18] 0.022 | [19] 0.037 | [20] -0.063

XRCC5 (UniProt P13010)
inactive: [1] 0.083 | [2] 0.07 | [3] -0.12 | [4] -0.405 | [5] -0.118 | [6] -0.243 | [7] 0.105 | [8] 0.123 | [9] -0.082 | [10] -0.014 | [11] -0.024 | [12] -0.172 | [13] -0.122 | [14] -0.058 | [15] 0.155 | [16] 0.151 | [17] 0.163 | [18] 0.019 | [19] -0.096 | [20] -0.041

ZFYVE16 (UniProt Q7Z3T8)
inactive: [1] -0.048 | [2] 0.001 | [3] 0.002 | [4] 0 | [5] -0.018 | [6] -0.045 | [7] 0.026 | [8] 0.004 | [9] -0.013 | [10] 0.008 | [11] -0.068 | [12] -0.038 | [13] -0.079 | [14] 0.007 | [15] -0.024 | [16] -0.017 | [17] -0.01 | [18] 0.002 | [19] -0.066 | [20] -0.019

XPO1 (UniProt O14980)
inactive: [1] -0.003 | [2] 0.042 | [3] -0.114 | [4] -0.037 | [5] -0.154 | [6] 0.001 | [7] 0.005 | [8] -0.008 | [9] -0.159 | [10] 0.042 | [11] 0.034 | [12] -0.056 | [14] -0.026 | [15] 0.082 | [16] 0.052 | [17] 0.092 | [18] 0.025 | [19] 0.009 | [20] -0.054
active: [13] -0.249

Looked up one by one from the entries so far (2):
ZFYVE16 (UniProt Q7Z3T8)
inactive: [1] -0.048 | [2] 0.001 | [3] 0.002 | [4] 0 | [5] -0.018 | [6] -0.045 | [7] 0.026 | [8] 0.004 | [9] -0.013 | [10] 0.008 | [11] -0.068 | [12] -0.038 | [13] -0.079 | [14] 0.007 | [15] -0.024 | [16] -0.017 | [17] -0.01 | [18] 0.002 | [19] -0.066 | [20] -0.019

ZC3H8 (UniProt Q8N5P1)
inactive: [1] 0.052 | [2] 0.026 | [3] 0.016 | [4] 0.081 | [5] 0.123 | [6] 0.036 | [7] -0.084 | [8] -0.056 | [9] 0.043 | [10] -0.102 | [11] 0.025 | [12] 0.08 | [13] 0.181 | [14] 0.036 | [15] -0.141 | [16] -0.039 | [17] -0.059 | [18] 0.035 | [19] 0 | [20] -0.104

Next entries

ZMAT2 (UniProt Q96NC0)
active: [11] 0.282
inactive: [1] -0.053 | [2] -0.037 | [3] 0.012 | [4] 0.07 | [5] 0.042 | [6] -0.027 | [7] -0.023 | [8] -0.051 | [9] -0.058 | [10] 0.049 | [12] 0.079 | [13] 0.043 | [14] 0.016 | [15] 0.081 | [16] -0.019 | [17] 0.085 | [18] 0.028 | [19] 0.012 | [20] 0.035

YPEL5 (UniProt P62699)
inactive: [1] 0.064 | [2] 0.198 | [3] -0.237 | [4] -0.118 | [5] -0.004 | [6] 0.036 | [7] -0.077 | [8] -0.071 | [9] 0.125 | [10] -0.202 | [11] 0.114 | [12] -0.019 | [13] -0.026 | [14] 0.129 | [15] -0.187 | [16] 0.028 | [17] -0.077 | [18] 0.116 | [19] -0.064 | [20] 0.067
